Data on 105 sequences can be found in PubChem BioAssay AID1347423 (Functional Genomics Laboratory (NCATS/FGL), 2020).

Among all 52,000 sequences or so, about 210 (0.4%) were called active.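 How the source made its calls: active means gene whose silencing raises cell survival under the drug, median off-target-corrected z-score across its silencing RNAs 2 or more; inactive means the rest.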 Some of the results follow.

The nature of this assay: Resistance to Poly (ADP-Ribose) Polymerase inhibitor: Gene Identification via Genome-wide siRNA Screen. As to conditions: mouse BRCA2 R2336H ES cells, olaparib, CellTiter-Glo viability; stronger effect = higher value. In a few lines: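 Mouse BRCA2 R2336H ES cells were reverse-transfected with siRNA (20 nM final), treated at 48 h with 500 nM olaparib, and read by CellTiter-Glo after 72 h. Scores: MAD-based z per siRNA, median per gene, seed off-target correction.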
On to CCUUCAAACCUUUAAGCUUTT against Kcnk13, for which the z-score was inactive: 0.931.

Regarding GGACUACGAAUACCCAUCGTT against Cck, the z-score is inactive: 0.0931.

Turning to CGAGCCUCUGUGAUAUCCATT against Cst11, the z-score is inactive: 1.28.

As for GCAAUAUUUGGGCUAUUAUTT against Ss18, the z-score is inactive: -3.

Turning to GUGACACUGCUGGGAAACATT against Olfr459, the z-score was inactive: -2.28.

Take GGGAACAUGCUCAUUGCAGTT against Olfr96: the z-score was inactive: -1.26.

Regarding GCAGGAUUAUGACACGUAUTT against Dgkq, the z-score was inactive: 0.445.

Take “GGUUUUUAAGGCUGUUUACTT against 1600012K10Rik”: the z-score is inactive: 0.562.

On to “GGUCCAGGUGACAAUAAAUTT against 2310076O21Rik”, for which the z-score is inactive: -1.04.

With GGAACAAGAAACCACAAUGTT against Agpat1, the z-score was inactive: 0.257.

Regarding GGCUUUAAUGCCUGUAUUATT against Ilvbl, the z-score is inactive: -0.614.

Consider “GGGUACAAAACUUGAACUUTT against 2700085M18Rik”, for which the z-score was inactive: -0.398.

For GGGAUUAAGGAUAAAGUUGTT against Usp28, the z-score is inactive: -0.42.

GGACUUGGUUUAUGAAACATT against Kif9: the z-score is inactive: -1.97.

Consider GGCGACAGCUAAGUGUUGGTT against Rai3, for which the z-score was inactive: -0.83.

As to GGCAAGUAUGUGUCCUUUGTT against Fhl3, the z-score was inactive: 1.81.

Consider GGAGGUGAUGCAGAUGCUGTT against Gpi1, for which the z-score was inactive: -1.67.

As to GGCAGAUUCUAAAUAUAGCTT against Itga9, the z-score was inactive: 2.36.

Turning to GGCUACCCAGGGAAUCAAGTT against Snapc4, the z-score is inactive: 0.302.

With GCAAGAUUUAUCCCAGUCGTT against Rnf2, the z-score was inactive: -1.54.

With GGCUAAAGGUGUUGAUUUUTT against Slitrk6, the z-score was inactive: 0.236.

With CCAGACCAUUAACUUGAUUTT against Lsm8, the z-score is inactive: -0.917.

On to GGACCCAGUCAUCUAGUAUTT against Elmo2, for which the z-score was inactive: 0.602.

For CCACGGGAGACAAGAUUCUTT against Hmbs, the z-score is inactive: 1.49.

With “GGACCUUCCUACGAGAAAATT against 2410018G23Rik”, the z-score was inactive: -1.34.

As to “GGGAUCCUGGAAAUUGUAATT against A930014I12Rik”, the z-score is inactive: -0.536.

For GCUGCUUAAUGCCAGGCGATT against Snapap, the z-score is inactive: 1.

Turning to GCGCAUUAAGGCAGAAAAGTT against Chaf1a, the z-score was inactive: -2.76.

With GCUAUGACGAUUUCCGUUCTT against Snx26, the z-score was inactive: 0.306.

Take “GGUCAGGCUUAUGAAUAUUTT against 2700029E10Rik”: the z-score was inactive: -1.26.

For GCUCCUAAAACAUGAGAAUTT against Cdk9, the z-score was inactive: -1.75.

In the case of GCCAGAAAAGUACCACCAGTT against Slc35f4, the z-score was inactive: -1.32.

With GGUAAUGAAUAGGAAACUCTT against Ostm1, the z-score is inactive: 0.135.

As to AAUGACCUUGACAACAUUUTT against Gm1705, the z-score was inactive: 0.772.

“GCACUUACUCUUCAACGGGTT against 1600012F09Rik”: the z-score is inactive: 1.45.

Regarding “GGUGACCUAUGCAUAUAUCTT against D5Ertd606e”, the z-score is inactive: 0.327.

On to CCAGGAAGUUACAAUUCAATT against Ccpg1, for which the z-score is inactive: 1.46.

For GGCUGUCCGGUUAAAUCCATT against Ifit1, the z-score is inactive: 0.72.

With “CCCUGGUCAAUCUUUUCCGTT against 2610033C09Rik”, the z-score was inactive: 2.05.

Consider GCUCACUGAAUCUCUACAUTT against Amph, for which the z-score was inactive: -0.55.

As for GGAAGUCCGUGUUAAGAUUTT against Adh7, the z-score is inactive: -0.468.

GGGAUACUUUUUAUUCAGGTT against Nmu: the z-score is inactive: 0.771.

For GGGAACAGGUUACAUUCAUTT against Gm457, the z-score was inactive: -0.681.

As to GCUACACCCUCUGUGAGUUTT against BC035295, the z-score is inactive: 0.263.

For the sequence CGUCAAUUCACACCAUUCATT against Gsk3a, the z-score was inactive: -1.77.

On to GGGUACCUCGUGGUACAUUTT against Rapgef3, for which the z-score was inactive: 2.5.

Consider “GCUUUUCGGGCAGGAGAGUTT against 1700034I23Rik”, for which the z-score was inactive: -1.17.

With GGGAAGUGAGACAUGCUGUTT against Zfp278, the z-score was inactive: 1.2.

As to “GGCAAUCAUGUGGACUUCATT against C230071H18Rik”, the z-score is inactive: -0.981.

For CCAGCUAUGAUUUACAUCUTT against Tdpoz1, the z-score is inactive: -0.765.

On to GGCAAAAUAUUGCACAGCGTT against Tsga10, for which the z-score is inactive: 0.132.

In the case of “GCAUCGACAAAUGAAUUGGTT against 2610022G08Rik”, the z-score was inactive: 0.497.

Turning to GGCAACUCUCGAAUCUUUUTT against Dorz1, the z-score is inactive: 0.913.

Regarding “GGUGAUGAUCUUGUGCCACTT against 5830458K16Rik”, the z-score was inactive: -0.631.

For the sequence GGUUAUUCCUAGCUUUAGCTT against V1ri8, the z-score is inactive: -0.31.

In the case of GGAGUCAAGAUCAUCUUCCTT against Tbc1d10, the z-score is inactive: -0.361.

For the sequence “GGGAAUUUUGGAAGAGUCUTT against F630003A18Rik”, the z-score was inactive: -1.19.

As to GGCUUUUAAGGUCAUCCCUTT against Bysl, the z-score is inactive: -1.03.

For the sequence GGAAGUCUAUGGUUUUUAGTT against Csnk2b, the z-score is inactive: -0.512.

As to GCCAGAAAGCGUGUCAGAUTT against Hddc2, the z-score is inactive: -0.909.

Turning to CCUAGAAUUCAUGGAAAAUTT against Olfr1196, the z-score was inactive: -0.834.

As to GGAGCUCCACCCUUAUUCATT against Zfp113, the z-score is inactive: 0.779.

For GGUGAUUUUGUUGACAUAATT against C80913, the z-score was inactive: -1.71.

As for GGAUGUUUUCCCGACAAGATT against Angptl1, the z-score was inactive: 1.52.

Regarding GCAGUGAACCGUAUUGGACTT against Ncam1, the z-score is inactive: 0.536.

On to GGGCUCUUCUCAUUCUAUATT against Olfr551, for which the z-score is inactive: 0.22.

Turning to “GGAAGGUGGAGAAAAUCCGTT against 4930507C10Rik”, the z-score was inactive: -0.537.

Turning to GCUCCAGAAUAUAUUGUUCTT against Arfgap3, the z-score was inactive: 0.754.

Regarding CCAGACUGAGAAGAUAUGATT against Meox2, the z-score is inactive: 0.236.

Take “CCCGGAUAUCCUGUGUCUUTT against 1110030H02Rik”: the z-score was inactive: 1.31.

For the sequence GGGUACGUGAAGAAACUUCTT against Meig1, the z-score is inactive: 0.414.

Take CGAAAUUCGGAAUGUAUAUTT against Tnp1: the z-score is inactive: -0.344.

For the sequence GCCAAGUUCAUCAAGAAGCTT against Dapk3, the z-score was inactive: -0.719.

In the case of GGCAUUAUCACAUAAAGGATT against Tec, the z-score was inactive: 0.209.

Consider GGUAGAGAGCUCAACAGGGTT against Klrb1c, for which the z-score was inactive: 0.357.

Take GGACCGGUGUAAGCUUCGATT against AA589481: the z-score was inactive: 1.25.

On to “GCAAAUCAUGACUAUUGUATT against 2610110G12Rik”, for which the z-score was inactive: -1.88.

As for GGCCAUUUAUCCAUGGUUGTT against Zdhhc17, the z-score was inactive: 0.743.

Consider GCAAGACGCACUGUUACUGTT against BC031353, for which the z-score is inactive: -1.42.

For the sequence GCAUUACUAUGACCGAUCCTT against Magea4, the z-score is inactive: -1.2.

For GCGAUGGAUUGUAAAAUUATT against Defb1, the z-score was inactive: -0.405.

GCAGGCCUUGUAUAGUGUGTT against Ccar1: the z-score is inactive: 0.392.

On to GGAGAAUGCACAGUUCACUTT against Krt1-16, for which the z-score is inactive: -0.416.

In the case of GCCAAGCAUAAUCUAAUGATT against Prpf4b, the z-score is inactive: -0.377.

With GCCGAACUGUCAGUACUUCTT against Nov, the z-score is inactive: 0.0205.

Consider GGAAAUUAUUCCAAGGUCUTT against D5Wsu46e, for which the z-score was inactive: -1.09.

As to CCUAUCAUAACGGUGAUAATT against Ddb1, the z-score was inactive: -2.06.

As for GGUCCAGCACGUCAAAGACTT against Myo1f, the z-score is inactive: -0.784.

For the sequence GGAUAAACAACAAUGAGAATT against Btg4, the z-score was inactive: -0.353.

With “GCACCUAAGUAAGAUUUGATT against 2310001N14Rik”, the z-score is inactive: -0.962.

Take GGCUAUUUCUACCUGUAUCTT against Otop2: the z-score was inactive: -0.777.

Turning to GGCAUAUUGUUUCAUUUUGTT against Rlbp1, the z-score was inactive: 0.621.

In the case of GGCAGGCUGUUUGAUCAAGTT against Cyp2a12, the z-score was inactive: -0.649.

For the sequence GGCUGUGUAUGCUGAUGUCTT against Cops7a, the z-score was inactive: -1.83.

Consider “CCAACUCGUUAUCACUAUATT against 1700001D09Rik”, for which the z-score is inactive: -0.0393.

GCAACUUUUAAUUGGUCUATT against Agrn: the z-score is inactive: 1.42.

Regarding CGUGGUCAGUAAGAUUUAUTT against Rragd, the z-score is inactive: 0.901.

GCCAUUAAGGAAAUGUUCUTT against Olfr426: the z-score was inactive: -1.34.

Take GCGAGACAAUUGUUAUUGATT against Zfp198: the z-score is inactive: -0.48.

For GGAAGUUUUUGAGAAUGGGTT against Ppp3cc, the z-score is inactive: 1.72.

Regarding CCUACUGUGCAUAGGUCUCTT against Tm4sf7, the z-score was inactive: -0.303.

On to GGACAGGCAGAGUUUACAGTT against Rit1, for which the z-score was inactive: 1.04.

CGGAUAACGGGAAUUUUAUTT against Rpia: the z-score is inactive: 0.76.

GGCUAUCUGAUUUUUGUUGTT against Cias1: the z-score was inactive: 0.868.

Regarding GCAUUUCCCAUCCUCUUGATT against Mrpl51, the z-score was inactive: -2.97.
